Measurements published in PubChem BioAssay AID2685 (National Center for Advancing Translational Sciences (NCATS), 2010).
The other results are listed elsewhere or left out. The main result of the screen is listed elsewhere. These columns were measured beside it and carry no call. Most of these compounds were active or inconclusive in the main read-out, so they are no random draw. Potencies come from curve fits of mixed quality, noted in brackets.

Assay: qHTS Assay for Lipid Storage Modulators in Drosophila S3 Cells;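 as to cell number change: cells counted by Cell Tracker Red CMTPX staining in the red channel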
Conditions: BODIPY lipid droplet fluorescence, 18-24 h; for cell number change: measured here: cell count max response, cells fed with added oleic acid
Method in brief: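 Drosophila S3 cells loaded with oleic acid (400 uM, as added) and compounds at several concentrations; lipid droplets imaged by 488-nm laser-scanning cytometry, 500–530 nm intensity and object ratio to cell channel. Percent activity normalized to 20 uM Triacsin C.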

[1] = measured here: cell number channel AC50, cells fed with added oleic acid
[2] = measured here: lipid fluorescence (Fed channel) AC50, cells fed with added oleic acid

Compound	cell number change	AC50 [1]	AC50 [2]
COc1cc(/C=C2/NC(=O)N(Cc3ccccc3F)C2=O)ccc1Oc1ccc([N+](=O)[O-])cn1	37.7%	16.4 µM [rising, single point]	0.291 µM [rising, partial curve, poor fit]
O=C(Nc1cccc(-c2cn3ccccc3n2)c1)c1ccccc1		0.731 µM [rising, single point]	0.58 µM [rising, single point]
O=C(Nc1ccc(-c2nc3ccccc3[nH]2)cc1)c1ccc2c(c1)OCO2	-72.8%	25.9 µM [falling, single point]	23.1 µM [falling, single point]
Cc1ccc2c(c1)Oc1ccc(NC(=O)CCl)cc1C(=O)N2	-37.4%	0.82 µM [falling, full curve]	0.92 µM [falling, full curve]
O=C(O)c1cccc(CN2C(=O)c3ccccc3C2=O)c1	-7.8%		5.8 µM [rising, single point]
O=C(c1cc2n(n1)C(C(F)(F)F)CC(c1ccco1)N2)N1CCN(c2ccccn2)CC1 (stereo not drawn)	-12.6%		0.103 µM [rising, full curve, poor fit]
Cc1cc(Cl)cc(Cl)c1CNc1c([N+](=O)[O-])c(=O)oc2ccccc12	31.2%	6.51 µM [rising, full curve, poor fit]	29.1 µM [rising, single point]
Fc1ccccc1CN1CCCC(NC2CCC2)C1 (stereo not drawn)	15.5%		32.6 µM [rising, single point]
CCOC(=O)c1cnn(-c2nc(C)cc(C)n2)c1N	31.9%	1.64 µM [rising, partial curve]	2.31 µM [rising, full curve]
Nc1c(C(=O)Nc2ccc3c(c2)OCCO3)nnn1Cc1ccc(Cl)cc1	50%	29.1 µM [rising, single point]	
Cc1nc(C#N)c(NCc2ccc3c(c2)OCO3)o1		1.16 µM [rising, partial curve]	
O=C(COC(=O)/C=C/c1ccccc1)NNC(=O)c1ccc([N+](=O)[O-])cc1	33.9%	13 µM [rising, single point]	
NC(N)=NN=C1CCCCCCCCCCC1	-36.6%	29.1 µM [falling, single point]	
Cc1c(C(=O)N2CCCC2)c(S(=O)(=O)NCCc2ccccc2)c(C)n1C	14.7%		23.1 µM [rising, single point]
O=C(N/N=C\c1ccc(Cl)s1)c1ccc(Cn2cccn2)o1	-34%	0.00651 µM [falling, full curve]	4.11 µM [falling, single point]
CCn1nc(NS(=O)(=O)c2ccc(NC(C)=O)cc2)c2cc3cc(C)ccc3nc21	-34.8%	16.4 µM [falling, partial curve, poor fit]	
Cc1ccc2c(c1)c(=O)c(Br)c(C)n2Cc1ccccc1			29.1 µM [falling, single point]
CCOC(=O)Cn1c(=N)n(CCOc2cccc(C)c2)c2ccccc21	33.3%		0.651 µM [falling, single point]
Cc1cccc(OCC(=O)Nc2cccc(C(=O)Nc3ccccc3C(=O)O)c2)c1	17.9%		4.61 µM [rising, partial curve, poor fit]
Cc1cccc(C)c1NC(=S)Nc1c(C)n(C)n(-c2ccccc2)c1=O	15%		2.91 µM [falling, full curve, poor fit]

Compound	cell number change	AC50 [1]	AC50 [2]
Cc1ccc(C2=NOC(C)(c3nnc(-c4ccc(F)cc4)o3)C2)cc1 (stereo not drawn)	11.2%		4.11 µM [falling, single point]
CCc1cccc(NC(=O)COC(=O)C2CCN(c3ccc(C(F)(F)F)cn3)CC2)c1	8.09%		6.51 µM [rising, single point]
Nc1nccc(/C=C/c2c(F)cccc2Cl)n1	21%		0.13 µM [falling, full curve, poor fit]
Cc1cccc(OCCCCCN2CCOCC2)c1C	10.5%		29.1 µM [rising, single point]
CCOC(=O)C1=C(N)N(c2ccc(C)cc2)C2=C(C(=O)CCC2)C1c1cccs1 (stereo not drawn)	-5.32%	3.66 µM [rising, single point]	
CCN(CC)CCSc1nc(O)c(C(C)C)c(=O)[nH]1	-37.9%	32.6 µM [falling, single point]	0.13 µM [falling, full curve, poor fit]
O=C(NNC(=O)c1cc(Br)c(Br)s1)c1csc(N2CCOCC2)n1	23.9%		20.6 µM [rising, partial curve, poor fit]
CN(C)c1ccc(/C=N/N2C(=S)SC(C)(C)C2N(O)C(=O)Nc2ccc([N+](=O)[O-])cc2)cc1 (stereo not drawn)	22.4%		20.6 µM [rising, partial curve]
O=C(NN1CC(C(=O)OCc2ccc(Br)cc2)CC1=O)c1ccccc1 (stereo not drawn)	28.5%		7.31 µM [rising, partial curve]
Cc1cc(-c2ccc(S(=O)(=O)N3CCN(C)CC3)s2)on1	-8.78%		
COc1cc(NC(=O)CCCN2C(=O)NC(C)(C)C2=O)cc(OC)c1	4.26%		6.51 µM [rising, partial curve, poor fit]
CCN1CCN(Cc2cccc(Oc3ccc(Cl)cc3)c2)CC1	10.2%		0.411 µM [falling, full curve, poor fit]
O=C(CNC(=O)C(c1ccccc1)c1ccccc1)N/N=C\c1cccc(O)c1	19.9%		
COc1ccc(-c2csc(-c3cccs3)n2)cc1OC	-4.06%		
CCc1c(C)nc2ncnn2c1N1CCC(C(=O)Nc2cccc(C(C)=O)c2)CC1	-8.12%		3.66 µM [rising, single point]
C=CC[C@H]1Cc2c(cccc2[N+](=O)[O-])[C@H](CC=C)N1	3.21%		23.1 µM [falling, single point]
C=C(C)CSc1nc2c(cc1C#N)CCC2	11.2%		5.8 µM [rising, partial curve]
CC(C(=O)Nc1ccc(S(=O)(=O)N2CCCC2)cc1)N(C)Cc1ccc(F)cc1 (stereo not drawn)	1.98%		
O=C(c1cccs1)N1CCN(c2ccc([N+](=O)[O-])cc2F)CC1		0.00461 µM [rising, full curve, poor fit]	0.291 µM [rising, full curve, poor fit]
COc1ccc(CCNC(=O)/C(C#N)=C/c2ccc(OCC(=O)NCC3CCCO3)cc2)cc1OC (stereo not drawn)	-16.5%		0.00517 µM [falling, full curve, poor fit]

Compound	cell number change	AC50 [1]	AC50 [2]
Clc1ccc(CON/C=N/c2ncnc3sccc23)c(Cl)c1	-12.6%		13 µM [falling, single point]
O=C(Nc1ccc2c(c1)OCO2)c1cc2n(n1)C(C(F)(F)F)CC(c1ccccc1)N2 (stereo not drawn)	-2.05%		
Nc1ccc(C(=O)N2CCN(S(=O)(=O)c3ccc(Cl)cc3)CC2)cc1[N+](=O)[O-]	89.1%	13 µM [rising, partial curve]	6.51 µM [rising, single point]
O=C(OCCCN1CCOCC1)c1ccc(O)c(O)c1	-14.5%		4.11 µM [falling, full curve, poor fit]
COc1ccc(-n2cnc3sc4c(c3c2=O)CCCC4)cc1	-1.22%		0.146 µM [rising, single point]
Cc1ccc(N2C(=O)N(CC(=O)N(C)Cc3ccccc3)C(=O)C2C)cc1 (stereo not drawn)	34%	2.59 µM [rising, full curve, poor fit]	
COC(=O)CCC/C=C1/SCC(NC(=O)c2ccccc2)C1=O (stereo not drawn)	-13%		
CCCNC(=O)COC(=O)c1ccc(-c2ccccc2)cc1	-25.1%		
Cn1c(=O)c2c(nc(NCc3ccc4c(c3)OCO4)n2Cc2ccc(F)cc2)n(C)c1=O	22.7%		16.4 µM [falling, single point]
O=[N+]([O-])c1ccc(/C=N/n2cnc3ccccc32)s1	-13.7%		14.6 µM [falling, partial curve]
CCNC(=O)Cc1ccc(S(=O)(=O)N2CCOCC2)s1	12.9%	6.51 µM [rising, single point]	4.11 µM [falling, single point]
O=C(CCC(=O)c1ccccc1)NC1CCCN(Cc2ccccc2F)C1 (stereo not drawn)	-4.2%		29.1 µM [rising, single point]
CC(C)Cc1nnc(NC(=O)CCC(=O)N2CCN(Cc3ccc(F)cc3)CC2)s1	-6.12%		0.651 µM [rising, single point]
Cn1nc(C(F)(F)F)c(C(=O)Nc2ccc(Cl)cc2)c1Cl	15.4%		6.51 µM [rising, partial curve, poor fit]
COc1cc(OC)cc(-c2c(-c3cccs3)c3cc(-c4ccc5[nH]ccc5c4)ccc3n2C)c1	-4.79%		0.103 µM [rising, full curve]
COc1ccccc1N1CCN(C(=O)COc2cc(C)cc(C)c2)CC1	35.2%	23.1 µM [rising, single point]	20.6 µM [rising, partial curve]
O=C(NCCN1CCOCC1)/C(=C\c1ccccc1F)NC(=O)c1ccccc1	-5.6%	2.91 µM [falling, single point]	
Cc1cc(C(F)F)n2ncc(C(=O)N3CCc4ccccc4C3)c2n1	1.12%		
CC(=O)c1ccc([C@@H]2C[C@]34CN(Cc5cccc(C(F)(F)F)c5)S(=O)(=O)[C@H]3C[C@H]2O4)cc1	-1.12%		18.4 µM [rising, partial curve]

Look-ups from the list.
AC50 [2], `COc1ccc(CCNC(=O)/C(C#N)=C/c2ccc(OCC(=O)NCC3CCCO3)cc2)cc1OC` (stereo not drawn) is entered as 0.00517 µM [falling, full curve, poor fit]
cell number change, `Cc1cccc(OCC(=O)Nc2cccc(C(=O)Nc3ccccc3C(=O)O)c2)c1` is entered as 17.9%
